Some of the results follow.
How the values were obtained:
Assay in all cases: protein microarray (ProtoArray v5.0), streptavidin-Alexa Fluor 647
Conditions in all cases: 3'-biotin; 20 mM Tris (pH 7.5), 5 mM MgCl2, 100 mM KCl, 0.1% Tween-20, A/T-rich and random oligonucleotide blockers; temperature not stated; high values mean tight binding
ACP1 (human) = test system: ACP1 (human)
ACPP (human) = test system: ACPP (human)
ACSL5 (human) = test system: ACSL5 (human)
ACTN2 (human) = test system: ACTN2 (human)
ACTN4 (human) = test system: ACTN4 (human)
ACY1 (human) = test system: ACY1 (human)
ACY3 (human) = test system: ACY3 (human)
ADD1 (human) = test system: ADD1 (human)
ADI1 (human) = test system: ADI1 (human)
[1] = test system: ADP-ribosylation factor-like protein 6-interacting protein 6 (human)

GGTGACAGGGGTATGGGGAGGGG [G4-2 biotinylated (Ct1)]
binding signal (ACP1 (human)): -0.389 z-score | binding signal (ACPP (human)): -0.391 z-score | binding signal (ACSL5 (human)): -0.37 z-score | binding signal (ACTN2 (human)): -0.391 z-score | binding signal (ACTN4 (human)): -0.384 z-score | binding signal (ACY1 (human)): -0.394 z-score | binding signal (ACY3 (human)): -0.389 z-score | binding signal (ADD1 (human)): -0.402 z-score | binding signal (ADI1 (human)): -0.401 z-score | binding signal [1]: -0.358 z-score

— publication PMC5996148
